# Test results published in patent US20210130473A1, “TGFßR1 INHIBITOR-ASGR ANTIBODY CONJUGATES AND USES THEREOF” (Silverback Therapeutics, Inc., priority 2019, published 2021).
# Positions count from the first letter of the chain named. Numbers in names are those of the source. These are yes or no findings as the source states them, for the method shown. Some entries that bind do so weakly or less than the wild type. For some assays here: Sequences can lack the tags named with a protein.
# T1: ASGR1 (form and assay not stated) (Homo sapiens (Human)) (UniProt P07306)
# T1 sequence: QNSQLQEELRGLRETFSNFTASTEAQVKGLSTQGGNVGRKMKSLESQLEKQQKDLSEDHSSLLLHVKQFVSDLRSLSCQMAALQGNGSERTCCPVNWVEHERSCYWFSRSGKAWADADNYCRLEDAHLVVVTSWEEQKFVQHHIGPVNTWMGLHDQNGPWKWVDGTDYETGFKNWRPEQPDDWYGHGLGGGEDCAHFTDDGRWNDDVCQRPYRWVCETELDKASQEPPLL
# T2: His-tagged human ASGR1 extracellular domain (human) (UniProt P07306)
# T2 sequence (looked up): T1 sequence
# B1: hzL4L-7 (antibody, IgG1, V domains shown)
# VH: QVQLQESGPGLVKPSQTLSLTCTVSGYSISSDYAWNWIRQHPGKGLEWIGYISYSGSTRYNPSLKSRVTITRDTSKNQFSLKLSSVTAADTAVYYCARRYRYDEGYGMDYWGQGTTVTVSS
# VL: DIQMTQSPSSLSASVGDRVTITCRASENIYSNLAWYQQKPGKAPKLLIYAATNLADGVPSRFSGSGSGTDFTLTISSLQPEDFATYYCQHFWGTPPWTFGGGTKVEIK
# B2: hzL4L-4 (antibody, IgG1, V domains shown)
# VH: B1 VH with S30T, T71S, R72V
# VL: B1 VL
# B3: hzL4L-3 (antibody, IgG1, V domains shown)
# VH: B1 VH with S30T, V68I, T69S
# VL: B1 VL
# B4: hzL4L-11 (antibody, IgG1, V domains shown)
# VH: B1 VH with S30T, V68I, T69S
# VL: B1 VL with D56E
# B5: L4L (parental chimeric antibody of Table 7) (antibody, IgG1, V domains shown)
# VH: DVQLQESGPGLVKPSQSLSLTCTVTGYSITSDYAWNWIRQFPGNKLEWMGYISYSGSTRYNPSLKSRISITRDTSKNQFFLQLNSVTTEDTATYYCARRYRYDEGYGMDYWGQGTSVTVSS
# VL: DIQMTQSPASLSVFVGEIVTITCRASENIYSNLAWYQQKQGKSPQLLVYAATNLADGVPSRFTGSGSGTQFSLKINSLQSEDFGNYYCQHFWGTPPWTFGGGTKLEIK
# B6: J4F (parental chimeric antibody of Table 9) (antibody, IgG1, V domains shown)
# VH: QVQLQQSGDDLVKPGASVKLSCKASGYTFTSYWINWIKQRPGQGLEWIGRIVPGSGSTYYNEMFKDKATLTVDTSSSTAYIQLSSLSSEDSAVYFCARKPNFDVWGAGTTVTVSS
# VL: DIVMTQSQKFMSTSVGDRVSVTCKASQNVGTNVAWYQQKPGQSPKAVIYSASYRFSGVPDRLTGSGSGTDFTLTITNVQSEDLAEYFCQQYNSYPLTFGAGTKLELK
# B7: hzJ4F-1 (antibody, IgG1, V domains shown)
# VH: QVQLVQSGAEVKKPGASVKVSCKASGYTFTSYWINWVRQAPGQGLEWMGRIVPGSGSTYYNEMFKDRVTMTRDTSTSTVYMELSSLRSEDTAVYYCARKPNFDVWGQGTTVTVSS
# VL: DIQMTQSPSSLSASVGDRVTITCKASQNVGTNVAWYQQKPGKAPKLLIYSASYRFSGVPSRFSGSGSGTDFTLTISSLQPEDFATYYCQQYNSYPLTFGGGTKVEIK
# B8: hzJ4F-9 (antibody, IgG1, V domains shown)
# VH: B7 VH with M70L, R72V
# VL: B7 VL with Q3V
# B9: hzJ4F-3 (antibody, IgG1, V domains shown)
# VH: B7 VH with R67K, V68A
# VL: B7 VL
# B10: hzJ4F-16 (antibody, IgG1, V domains shown)
# VH: B7 VH
# VL: B7 VL with Q3V, L46A
# B11: hzJ4F-11 (antibody, IgG1, V domains shown)
# VH: B7 VH
# VL: B7 VL with L46A
# B12: hzJ4F-14 (antibody, IgG1, V domains shown)
# VH: B7 VH with M70L, R72V
# VL: B7 VL with L46A
# B13: hzJ4F-7 (antibody, IgG1, V domains shown)
# VH: B7 VH with R67K, V68A, M70L, R72V
# VL: B7 VL with Q3V
# B14: hzJ4F-17 (antibody, IgG1, V domains shown)
# VH: B7 VH with R67K, V68A, M70L, R72V
# VL: B7 VL with Q3V, L46A
# B15: hzJ4F-10 (antibody, IgG1, V domains shown)
# VH: B7 VH with R72V
# VL: B7 VL with Q3V
# B16: hzJ4F-8 (antibody, IgG1, V domains shown)
# VH: B7 VH with R67K, V68A
# VL: B7 VL with Q3V
# B17: hzJ4F-2 (antibody, IgG1, V domains shown)
# VH: B7 VH with R67K, V68A, M70L, R72V
# VL: B7 VL
# B18: hzJ4F-19 (antibody, IgG1, V domains shown)
# VH: B7 VH with M70L, R72V
# VL: B7 VL with Q3V, L46A
# B19: hzJ4F-5 (antibody, IgG1, V domains shown)
# VH: B7 VH with R72V
# VL: B7 VL
# B20: hzJ4F-13 (antibody, IgG1, V domains shown)
# VH: B7 VH with R67K, V68A
# VL: B7 VL with L46A
# B21: hzJ4F-6 (antibody, IgG1, V domains shown)
# VH: B7 VH
# VL: B7 VL with Q3V
# B22: hzJ4F-20 (antibody, IgG1, V domains shown)
# VH: B7 VH with R72V
# VL: B7 VL with Q3V, L46A
# B23: hzJ4F-4 (antibody, IgG1, V domains shown)
# VH: B7 VH with M70L, R72V
# VL: B7 VL
# B24: hzJ4F-15 (antibody, IgG1, V domains shown)
# VH: B7 VH with R72V
# VL: B7 VL with L46A
# B25: hzJ4F-18 (antibody, IgG1, V domains shown)
# VH: B7 VH with R67K, V68A
# VL: B7 VL with Q3V, L46A
# B26: hzJ4F-12 (antibody, IgG1, V domains shown)
# VH: B7 VH with R67K, V68A, M70L, R72V
# VL: B7 VL with L46A
# B27: chH8K (antibody, human IgG1, kappa, V domains shown)
# VH: DVQLQESGPGLVKPSQSLSLTCTVTGFSITSDYAWNWIRQFPGNQLEWMGYRSYRGSTSYNPSLKSRISITRDTSKNQFFLQLNSVTTEDTATYYCARRGYYGSSSHWYFDVWGAGTTVTVSS
# VL: DIQMTQSPASLSASVGETVTITCRASENIYSYLAWYQQKQGKSPQLLVYNAKTLAEGVPSRFSGSGSGTQFSLKINSLQPEDFGSYYCQHHYGTPLTFGSGTKLELKR
# B28: hzH8K-1 (antibody, IgG1, V domains shown)
# VH: QVQLQESGPGLVKPSQTLSLTCTVSGGSISSDYAWNWIRQHPGKGLEWIGYRSYRGSTSYNPSLKSRVTISVDTSKNQFSLKLSSVTAADTAVYYCARRGYYGSSSHWYFDVWGQGTTVTVSS
# VL: DIQMTQSPSSLSASVGDRVTITCRASENIYSYLAWYQQKPGKAPKLLIYNAKTLAEGVPSRFSGSGSGTDFTLTISSLQPEDFATYYCQHHYGTPLTFGGGTKVEIK
# B29: hzH8K-10 (antibody, IgG1, V domains shown)
# VH: B28 VH with S71T, V72R
# VL: B28 VL
# B30: hzL4L-14 (antibody, IgG1, V domains shown)
# VH: B1 VH
# VL: B1 VL with D56E
# Molecular target: human ASGR1 (asialoglycoprotein receptor 1) on cells (human) (UniProt P07306)
# Assay: Guava flow cytometry screen on HepG2 cells
row,binding,Binder
1,binds,B1
2,binds,B2
3,binds,B3
4,binds,B4
5,binds,B5

# Molecular target: T1, ASGR1 (form and assay not stated) (Homo sapiens (Human))
# Assay: binding screen, assay not described
row,binding,Binder
1,binds,B6
2,binds,B7
3,binds,B8
4,binds,B9
5,binds,B10
6,binds,B11
7,binds,B12
8,binds,B13
9,binds,B14
10,binds,B15
11,binds,B16
12,binds,B17
13,binds,B18
14,binds,B19
15,binds,B20
16,binds,B21
17,binds,B22
18,binds,B23
19,binds,B24
20,binds,B25
21,binds,B26

# Molecular target: T2, His-tagged human ASGR1 extracellular domain (human)
# Assay: Octet, His-tagged ASGR1 ECD on Penta-His sensors; saturation binding with Ca2+, signal kept on dissociation with or without Ca2+
row,binding,Binder
1,binds,B27

# Molecular target: human ASGR1 (asialoglycoprotein receptor 1) on cells (human) (UniProt P07306)
# Assay: flow cytometry on HepG2 cells
row,binding,Binder
1,binds,B28
2,binds,B29
3,binds,B1
4,binds,B30

# Molecular target: human ASGR1 (asialoglycoprotein receptor 1) on cells (human) (UniProt P07306)
# Assay: flow cytometry on HepG2 cells, anti-human IgG PE secondary, MFI (Geo Mean)
row,binding,Binder
1,binds,B28
2,binds,B29
3,binds,B1
4,binds,B30
